The values below come from publication PMC8810859.

The chains behind the UniProt entries cited, without tags or fusion partners.
UniProt P40337: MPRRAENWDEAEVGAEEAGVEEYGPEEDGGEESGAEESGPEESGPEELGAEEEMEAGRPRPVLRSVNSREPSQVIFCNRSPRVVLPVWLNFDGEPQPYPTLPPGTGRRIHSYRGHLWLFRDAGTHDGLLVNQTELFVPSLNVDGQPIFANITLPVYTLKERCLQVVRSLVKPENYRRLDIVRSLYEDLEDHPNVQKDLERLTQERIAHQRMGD

Results are given in words; binding and its absence hold for the method and conditions named. In cells and extracts the contact can be indirect. Some results given as binding are weak or reduced against the parent protein; the word gives no strength. For some assays here: Sequences can lack the tags named with a protein.

Experiment [1] addresses T1, Deubiquitylase ovarian tumor domain-containing 6B (OTUD6B), endogenous (human (endogenous in ACHN)) (UniProt Q8N6M0).
T1 sequence: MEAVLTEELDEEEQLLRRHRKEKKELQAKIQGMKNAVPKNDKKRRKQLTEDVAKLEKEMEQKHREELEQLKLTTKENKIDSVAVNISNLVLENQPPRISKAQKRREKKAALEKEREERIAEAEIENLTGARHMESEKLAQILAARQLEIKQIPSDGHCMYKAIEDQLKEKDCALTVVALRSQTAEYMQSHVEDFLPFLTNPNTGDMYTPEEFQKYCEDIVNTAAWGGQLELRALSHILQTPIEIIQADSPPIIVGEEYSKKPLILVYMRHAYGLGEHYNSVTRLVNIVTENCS
Description: co-IP; endogenous proteins from ACHN cell lysates; HEPES lysis buffer, protein A/G agarose beads, 4 °C.

Experiment [2] concerns the target T2, ectopic OTUD6B (myc-tagged) (human) (UniProt Q8N6M0).
T2 sequence: T1 sequence
In words: co-IP; HEK293T transfected with the constructs; lysate immunoprecipitated with anti-myc antibody, blotted with anti-flag or anti-myc.

Turning to “VHL protein (pVHL), endogenous wild type (from UniProt P40337 1-213)”, in experiment [1], the binding entry was “binds”. “flag-pVHL wild type (from UniProt P40337 1-213)”: the binding result in experiment [2] is “binds”.
